PubChem BioAssay AID1224826, NIAID | 2016

Screen: 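Genes that change LPS-induced Tnf promoter activity in mouse macrophages when knocked down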 (primary screen)
Cells: RAW264.7 G9 macrophages from mouse bearing reporters for p65 (GFP) and the Tnf promoter (mCherry)
Knock-down reagent: siRNA pool against mouse genes, 100 nM
Duration: 16 h of LPS stimulation, after 2 days of siRNA transfection
Challenge: bacterial lipopolysaccharide (Salmonella minnesota R595), 10 ng/ml
Measured: 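Imaged Tnf reporter mCherry in nuclei, minus background, normalised per plate to the median and expressed as robust z-scores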
Scale: Tnf reporter robust z-score: higher = stronger Tnf promoter reporter signal after LPS; Tnf reporter intensity: higher = stronger Tnf promoter reporter signal
Active means: 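a well counts as active at a score of -1.3 or below (Tlr4 knock-down control median) or above 3 (raised signal); controls and wells holding fewer than 50 cells are excluded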
Calls: active = Tnf reporter clearly lowered or raised; inactive = no clear change in Tnf reporter
Shown is a random part of about 17,000 reagents tested. In the full data, about 1,110 (6.6%) got an active call. 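Active means lowered or raised reporter signal; replicate intensities are raw and not normalised per plate.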 A number with no mark means an inactive call. Reagents against one gene are numbered here. No sequences are given here.

The opening 2 entries as a preview:
gene,reagent,Tnf reporter robust z-score,fewer than 50 cells in well,"Tnf reporter intensity, replicate 1","Tnf reporter intensity, replicate 2"
Slc38a7,1,0.34,enough cells in well,228,234
Pgk2,1,-0.37,enough cells in well,138,172

Results, from the first entry:
gene,reagent,Tnf reporter robust z-score,fewer than 50 cells in well,"Tnf reporter intensity, replicate 1","Tnf reporter intensity, replicate 2"
Slc38a7,1,0.34,enough cells in well,228,234
Pgk2,1,-0.37,enough cells in well,138,172
Nsa2,1,-0.02,enough cells in well,147,148
Map7,1,0.33,enough cells in well,366,168
Or8g34,1,-0.16,enough cells in well,144,121
Lipt2,1,,fewer than 50 cells per well; well left out of calls,243,104
Atp5f1d,1,,fewer than 50 cells per well; well left out of calls,117,82.4
Stat3,1,0.49,enough cells in well,350,229
Cmtm2b,1,0.57,enough cells in well,201,204
Kctd13,1,0.14,enough cells in well,222,123
Sgms2,1,,fewer than 50 cells per well; well left out of calls,195,45.1
Cep89,1,-1.34 (active),enough cells in well,141,35.3
Hmgcs1,1,,fewer than 50 cells per well; well left out of calls,210,104
Or10p1,1,,fewer than 50 cells per well; well left out of calls,48.5,47
Kit,1,-0.99,enough cells in well,113,123
Iyd,1,-0.19,enough cells in well,189,87.7
Adgrg1,1,-0.53,enough cells in well,171,251
Or2t6,1,-0.55,enough cells in well,250,59.3
Pagr1a,1,,fewer than 50 cells per well; well left out of calls,120,66.5
D130012P04Rik,1,0.17,enough cells in well,202,180
Alox12e,1,1.2,enough cells in well,240,312
Ccnf,1,0.44,enough cells in well,280,242
Serpinb1b,1,1.15,enough cells in well,125,141
Klk1b24,1,-0.68,enough cells in well,161,92.3
Heph,1,-0.24,enough cells in well,235,81.4
Eva1b,1,,fewer than 50 cells per well; well left out of calls,145,92.2
Btbd3,1,0.74,enough cells in well,15.2,206
Slc27a1,1,0.19,enough cells in well,111,104
Pold2,1,-0.08,enough cells in well,141,111
Ncoa4,1,0.54,enough cells in well,294,257
H2ax,1,0.79,enough cells in well,330,293
Sar1b,1,3.38 (active),enough cells in well,302,245
Ints8,1,-0.32,enough cells in well,259,51.7
Ccser2,1,1.2,enough cells in well,241,21.3
Smarcc2,1,0.4,enough cells in well,147,215
Pcdhga1,1,0.34,enough cells in well,153,159
Capza3,1,-1.69 (active),enough cells in well,69.3,77.2
Or2w2,1,-0.02,enough cells in well,183,96.2
Bsx,1,,fewer than 50 cells per well; well left out of calls,4.81,312
Nos3,1,-0.56,enough cells in well,218,129
Cxadr,1,0.19,enough cells in well,240,226
Hnrnpa3,1,2.85,enough cells in well,395,167
Tac1,1,-1.07,enough cells in well,186,62.1
Ccnd3,1,1.49,enough cells in well,377,306
E2f7,1,1.7,enough cells in well,265,200
Sgsh,1,0.63,enough cells in well,350,250
Ccnd2,1,1.25,enough cells in well,366,281
Thada,1,-0.75,enough cells in well,118,126
Thada,2,2.45,enough cells in well,357,315
Chrdl2,1,-1.18,enough cells in well,65.5,153
Baalc,1,0.4,enough cells in well,256,210
Slc25a44,1,-0.26,enough cells in well,143,143
Mlx,1,1.28,enough cells in well,288,221
Prkg1,1,-0.06,enough cells in well,178,171
Taf15,1,-0.21,enough cells in well,232,115
Il2ra,1,-0.82,enough cells in well,179,105
Herc1,1,0.38,enough cells in well,271,209
Nucb1,1,-0.9,enough cells in well,205,97.2
